Data as given in PubChem BioAssay AID1224828 (NIAID, 2016)
Here is one part, drawn at random, of about 17,000 reagents tested. Of all reagents, 762 (4.5%) are marked active. 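Active calls include both raised and lowered p65 entry, mostly lowered; wells with fewer than 50 cells lack a z-score.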 Raw values are not corrected between plates. Unmarked entries are inactive.

Assay: 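Regulators linking TLR4 signalling to p65 nuclear translocation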 (primary screen)
Cells: mouse RAW264.7 G9 macrophage reporter cells (GFP-p65, Tnf promoter-mCherry)
Knock-down reagent: siRNA pool against mouse genes, 100 nM
Duration: 2 days siRNA transfection, then 40 min LPS before fixation
Conditions: LPS (Salmonella minnesota R595) at 10 ng/ml
Measurement: 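Imaged p65 nuclear translocation ratio, normalised to the plate median, converted to robust z-scores and averaged across two replicates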
Scale: p65 translocation robust z-score: higher = more nuclear NF-kappaB p65 after LPS than the plate median; nuclear/cytoplasmic p65 ratio: higher = more nuclear NF-kappaB p65
Call rule: 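Active if robust z is above 3.3 (negative regulators) or below -1.56, the Tlr4 control median (positive regulators); activity score 50 or more; control wells not called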
Meaning of the calls: active = hit (p65 shift raised or lowered); inactive = no clear change

gene	p65 translocation robust z-score	nuclear/cytoplasmic p65 ratio, rep 1	nuclear/cytoplasmic p65 ratio, rep 2	low cell count flag
D030056L22Rik (RIKEN cDNA D030056L22 gene)	0.62	1.64	1.91	enough cells to score
Wdr46 (WD repeat domain 46)		1.45	1.4	fewer than 50 cells per well; well left out of scoring
Irx3os (iroquois homeobox 3, opposite strand)	-0.22	1.59	1.47	enough cells to score
S100a11 (S100 calcium binding protein A11)	1.32	1.72	1.59	enough cells to score
Hdac1 (histone deacetylase 1)	1.26	1.59	1.55	enough cells to score
Pth2r (parathyroid hormone 2 receptor)	-0.6	1.42	1.51	enough cells to score
Prss1 (serine protease 1 (trypsin 1))	-0.15	1.53	1.45	enough cells to score
Atp5mf (ATP synthase membrane subunit f)	-1.57 (active)	1.35	1.31	enough cells to score
Atp8b2 (ATPase, class I, type 8B, member 2)	0.17	1.63	1.65	enough cells to score
Akirin1 (akirin 1)	-0.67	1.33	1.32	enough cells to score
Exosc10 (exosome component 10)	0.21	1.72	1.41	enough cells to score
Or1e33 (olfactory receptor family 1 subfamily E member 33)	-0.37	1.61	1.32	enough cells to score
Creb3l4 (cAMP responsive element binding protein 3-like 4)	0.56	1.79	1.73	enough cells to score
Adam9 (ADAM metallopeptidase domain 9)	-0.42	1.69	1.27	enough cells to score
Svopl (SV2 related protein homolog (rat)-like)		1.29	1.42	fewer than 50 cells per well; well left out of scoring
Or4d5 (olfactory receptor family 4 subfamily D member 5)	1.83	1.69	1.46	enough cells to score
Tcof1 (treacle ribosome biogenesis factor 1)	0.89	1.69	1.59	enough cells to score
Jarid2 (jumonji and AT-rich interaction domain containing 2)		1.22	1.16	fewer than 50 cells per well; well left out of scoring
9230109A22Rik (RIKEN cDNA 9230109A22 gene)	1.63	1.57	1.85	enough cells to score
Tkt (transketolase)	-0.65	1.42	1.43	enough cells to score
Slc29a1		1.3	1.17	fewer than 50 cells per well; well left out of scoring
Slc30a9		1.24	1.06	fewer than 50 cells per well; well left out of scoring
Dnmt3l (DNA methyltransferase 3-like)	-1.71 (active)	1.24	1.14	enough cells to score
Meox1 (mesenchyme homeobox 1)	1.05	1.13	1.48	enough cells to score
